{"sequences": {"note": "Protein sequences, listed by entry. Tags and fused reporters are not part of them.", "UniProt P0DTC3": "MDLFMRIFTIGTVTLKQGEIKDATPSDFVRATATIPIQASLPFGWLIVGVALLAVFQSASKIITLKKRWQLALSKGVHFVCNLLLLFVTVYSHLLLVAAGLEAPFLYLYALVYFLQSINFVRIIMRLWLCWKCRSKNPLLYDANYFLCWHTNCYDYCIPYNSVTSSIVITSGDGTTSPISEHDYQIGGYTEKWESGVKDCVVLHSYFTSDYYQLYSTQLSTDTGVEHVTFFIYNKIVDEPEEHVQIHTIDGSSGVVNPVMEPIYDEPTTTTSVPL", "UniProt Q86WV6": "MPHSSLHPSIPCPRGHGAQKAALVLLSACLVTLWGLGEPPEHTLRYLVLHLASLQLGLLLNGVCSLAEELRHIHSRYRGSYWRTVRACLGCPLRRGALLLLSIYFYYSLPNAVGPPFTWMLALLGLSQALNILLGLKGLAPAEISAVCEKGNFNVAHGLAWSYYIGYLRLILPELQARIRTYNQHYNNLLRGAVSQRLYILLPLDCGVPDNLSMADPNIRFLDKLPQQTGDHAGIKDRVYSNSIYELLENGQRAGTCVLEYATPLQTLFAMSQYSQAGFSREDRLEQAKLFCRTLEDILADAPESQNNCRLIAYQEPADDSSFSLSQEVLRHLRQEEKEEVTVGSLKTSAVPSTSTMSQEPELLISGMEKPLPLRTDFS"}, "source": "paper PMC7958565", "biological_target": "SARS-CoV-2 ORF3a with a C-terminal HA tag (SARS-CoV-2) (UniProt P0DTC3)", "experiment": "co-IP", "note": "These are yes or no findings as the source states them, for the method shown. Binding seen in cells or lysates may run through a third protein. Some results given as binding are weak or reduced against the parent protein; the word gives no strength.", "data": [{"substance": "full-length (wild-type) STING detected by anti-GFP (from UniProt Q86WV6 1-379)", "values": [{"measurement": "binding", "result": "binds"}]}]}
